Positions count from the first letter of the chain named. Names may count otherwise. Results are given in words; binding and its absence hold for the method and conditions named. Binding seen in cells or lysates may run through a third protein. For some of these results: Binding calls can cover weak binding; strength is not graded here. Sequences can lack the tags named with a protein.
T1: GST-ACK GBD wild type, ACK(448-489) (UniProt Q07912)
T1 sequence: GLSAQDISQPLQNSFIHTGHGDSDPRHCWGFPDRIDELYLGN

By UniProt entry, the sequences of proteins in these tests, tags left out. Where a name states a change or a piece, a line headed by the entry shows the natural chain unless it says otherwise.
UniProt P60953: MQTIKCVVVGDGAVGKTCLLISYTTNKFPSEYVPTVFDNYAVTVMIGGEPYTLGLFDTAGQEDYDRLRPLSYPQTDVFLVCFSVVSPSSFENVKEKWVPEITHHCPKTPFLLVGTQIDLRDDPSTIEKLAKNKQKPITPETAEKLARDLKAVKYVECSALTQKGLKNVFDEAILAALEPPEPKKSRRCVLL

T2: GST-ACK GBD F462A (UniProt Q07912)
T2 sequence: T1 sequence with F15A

T3: GST-ACK GBD H464A (UniProt Q07912)
T3 sequence: T1 sequence with H17A

T4: GST-ACK GBD H464A/H467A (UniProt Q07912)
T4 sequence: T1 sequence with H17A, H20A

T5: GST-ACK GBD H467A (UniProt Q07912)
T5 sequence: T1 sequence with H20A

T6: GST-ACK GBD I454A (UniProt Q07912)
T6 sequence: T1 sequence with I7A

T7: GST-ACK GBD P457A (UniProt Q07912)
T7 sequence: T1 sequence with P10A

T8: GST-ACK GBD S461A (UniProt Q07912)
T8 sequence: T1 sequence with S14A

T9: GST-ACK GBD Δ17 (UniProt Q07912)
T9 sequence: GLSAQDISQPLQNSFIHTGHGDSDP


Key:
[1] = target: T1, GST-ACK GBD wild type, ACK(448-489); test: scintillation proximity assay (competition); 30 nM GST-WT ACK GBD immobilised on protein A SPA fluoromicrospheres via an anti-GST antibody, 30 nM [3H]GTP-Cdc42; increasing concentrations of GST-cleaved ACK variant; pure competition model, apparent Kd (Ki); both purified
GST-ACK GBD F462A = target: T2, GST-ACK GBD F462A; test: condition: Kd > 1 μM (the limit of accurate direct SPA calculations); scintillation proximity assay (direct binding); 20 nM GST-ACK variant immobilised on protein A SPA fluoromicrospheres via an anti-GST antibody; varying concentrations of [3H]GTP-Cdc42; background without effector subtracted; apparent Kd from a direct binding isotherm; both purified
GST-ACK GBD H464A = target: T3, GST-ACK GBD H464A; test: as above
GST-ACK GBD H464A/H467A = target: T4, GST-ACK GBD H464A/H467A; test: as above
GST-ACK GBD H467A = target: T5, GST-ACK GBD H467A; test: as above
GST-ACK GBD I454A = target: T6, GST-ACK GBD I454A; test: as above
GST-ACK GBD P457A = target: T7, GST-ACK GBD P457A; test: as above
GST-ACK GBD S461A = target: T8, GST-ACK GBD S461A; test: as above
GST-ACK GBD Δ17 = target: T9, GST-ACK GBD Δ17; test: as above
Cdc42 Δ7 Q61L = Cdc42 Δ7 Q61L (UniProt P60953); test: scintillation proximity assay (competition); 30 nM GST-WT ACK GBD immobilised on protein A SPA fluoromicrospheres via an anti-GST antibody, 30 nM [3H]GTP-Cdc42; increasing concentrations of GST-cleaved ACK variant; pure competition model, apparent Kd (Ki); both purified

binding [1] | binding (GST-ACK GBD F462A) | binding (GST-ACK GBD H464A) | binding (GST-ACK GBD H464A/H467A) | binding (GST-ACK GBD H467A) | binding (GST-ACK GBD I454A) | binding (GST-ACK GBD P457A) | binding (GST-ACK GBD S461A) | binding (GST-ACK GBD Δ17) | binding (Cdc42 Δ7 Q61L) | Molecule
binds | no binding | no binding | no binding | no binding | no binding | no binding | no binding | no binding | – | Cdc42 Δ7 Q61L (from UniProt P60953)
– | – | – | – | – | – | – | – | – | no binding | GLSAQDISQPLQNSFIATGAGDSDPRHCWGFPDRIDELYLGN (domain or fragment, UniProt Q07912 448-489) [ACK GBD H464A/H467A, cleaved from GST]

Reference: article PMC5500802
